Laboratory results from article PMC6042396.
These are yes or no findings as the source states them, for the method shown. For some of these results: Binding seen in cells or lysates may run through a third protein. Some results given as binding are weak or reduced against the parent protein; the word gives no strength.

By UniProt entry, the sequences of proteins in these tests, tags left out.
UniProt O00506: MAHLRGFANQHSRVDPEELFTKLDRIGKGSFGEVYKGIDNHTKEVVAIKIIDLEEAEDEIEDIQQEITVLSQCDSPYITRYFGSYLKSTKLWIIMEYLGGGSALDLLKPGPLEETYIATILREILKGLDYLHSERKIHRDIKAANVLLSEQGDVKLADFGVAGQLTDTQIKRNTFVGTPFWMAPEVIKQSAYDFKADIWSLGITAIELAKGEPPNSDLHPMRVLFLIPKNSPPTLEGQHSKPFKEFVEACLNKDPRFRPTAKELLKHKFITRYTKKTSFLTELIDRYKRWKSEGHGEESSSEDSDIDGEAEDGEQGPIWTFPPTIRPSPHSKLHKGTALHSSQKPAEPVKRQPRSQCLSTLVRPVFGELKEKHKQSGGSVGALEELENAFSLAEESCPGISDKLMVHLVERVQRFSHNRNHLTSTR
UniProt Q9H4A6: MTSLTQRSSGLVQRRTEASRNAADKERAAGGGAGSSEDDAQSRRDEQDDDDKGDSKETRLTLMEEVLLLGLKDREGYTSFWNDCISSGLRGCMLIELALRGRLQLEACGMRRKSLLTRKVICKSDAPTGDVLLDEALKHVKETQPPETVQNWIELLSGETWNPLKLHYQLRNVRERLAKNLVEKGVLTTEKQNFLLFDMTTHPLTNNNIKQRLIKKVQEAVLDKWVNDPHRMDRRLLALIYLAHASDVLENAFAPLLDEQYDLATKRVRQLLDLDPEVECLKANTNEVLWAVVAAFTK

Experiments:
[1] = target: Flag-STK25 (serine/threonine protein kinase 25) (human) (UniProt O00506); assay: co-IP; Flag antibody on rProtein A sepharose beads, 500 μg of total protein in cell lysis buffer, 4 h at 4 °C; western blot with c-Myc antibody
His-STK25 (human) = His-STK25 (human) (UniProt O00506); assay: pull-down; His-tag pull-down: 10 μg of His-STK25 mixed with 10 μg of GST-GOLPH3 or GST, Ni-NTA agarose; western blot with anti-GST and anti-His tag; both purified
GST-GOLPH3 = GST-GOLPH3 (UniProt Q9H4A6); assay: pull-down; GST pull-down: 10 μg of His-STK25 mixed with 10 μg of GST-GOLPH3 or GST, glutathione sepharose 4B beads; western blot with anti-GST and anti-His tag; both purified
Myc-GOLPH3 = Myc-GOLPH3 (UniProt Q9H4A6); assay: co-IP; reciprocal IP: c-Myc antibody on rProtein A sepharose beads, 500 μg of total protein in cell lysis buffer, 4 h at 4 °C; western blot with Flag antibody

Myc-GOLPH3 (from UniProt Q9H4A6 1-298)
binding [1]: binds

GST-GOLPH3 (from UniProt Q9H4A6 1-298)
binding (His-STK25 (human)): binds

His-STK25 (from UniProt O00506 1-426) (enzyme)
binding (GST-GOLPH3): binds

Flag-STK25 (serine/threonine protein kinase 25) (from UniProt O00506 1-426) (enzyme)
binding (Myc-GOLPH3): binds
